Taken from: PubChem BioAssay AID1508597 (Cure First, 2020)
Aim: 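Knock-downs altering ovarian cancer cell survival with or without PARP inhibitor rucaparib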 (primary screen). Cells: human ovarian carcinoma lines grown from tumours: OCI-P5x (papillary serous) and OCI-C5x (clear cell). Reagents: siRNA pool against human genes, 1.25 pmol siRNA per well. Time to read-out: 72 h or 96 h, depending on the cell culture. Conditions: rucaparib 20 µM (about IC30) or vehicle, present until read-out. Rucaparib or vehicle: Rucaparib. Cell line: OCI-C5x (clear cell). Read-out: 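ATP luminescence measured at 72 or 96 h according to the culture, then normalised and expressed as percent viability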. Scale: viability, normalised: higher = more viable cells remaining. Rule for the call: 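Active when normalised viability falls below 80 percent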. Meaning of the calls: active = viability under 80%; inactive = viability 80% or more.
Shown is a random part of the about 2,100 reagents, under one of the conditions tested. 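Calls flag viability under 80% in either arm, not effects specific to rucaparib; the reference for percent is not stated.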 A reagent listed more than once was tested more than once; the source does not tell the runs apart. Not stated in the record: the 100% reference.

RING1 (ring finger protein 1), technical replicate 1 scored viability, normalised (%) = 59; active. For RING1 (ring finger protein 1), technical replicate 2, the entry reads viability, normalised (%) = 47.8; active. With RING1 (ring finger protein 1), technical replicate 3 the deposit lists viability, normalised (%) = 49.3; active. For EME1 (essential meiotic structure-specific endonuclease 1), technical replicate 1, the entry reads viability, normalised (%) = 58.2; active. EME1 (essential meiotic structure-specific endonuclease 1), technical replicate 2 gave viability, normalised (%) = 48.8; active. With EME1 (essential meiotic structure-specific endonuclease 1), technical replicate 3, the entry reads viability, normalised (%) = 62.6; active.

BUB1B (BUB1 mitotic checkpoint serine/threonine kinase B), technical replicate 1 showed viability, normalised (%) = 48; active. For BUB1B (BUB1 mitotic checkpoint serine/threonine kinase B), technical replicate 1, the values are viability, normalised (%) = 32.2; active. BUB1B (BUB1 mitotic checkpoint serine/threonine kinase B), technical replicate 1 showed viability, normalised (%) = 74.1; active. For BUB1B (BUB1 mitotic checkpoint serine/threonine kinase B), technical replicate 2, the values are viability, normalised (%) = 49.4; active. BUB1B (BUB1 mitotic checkpoint serine/threonine kinase B), technical replicate 2 gave viability, normalised (%) = 35.4; active. BUB1B (BUB1 mitotic checkpoint serine/threonine kinase B), technical replicate 2 scored viability, normalised (%) = 78.7; active.

For BUB1B (BUB1 mitotic checkpoint serine/threonine kinase B), technical replicate 3 the deposit lists viability, normalised (%) = 36.4; active. BUB1B (BUB1 mitotic checkpoint serine/threonine kinase B), technical replicate 3 scored viability, normalised (%) = 91.5; inactive. With BUB1B (BUB1 mitotic checkpoint serine/threonine kinase B), technical replicate 3 the deposit lists viability, normalised (%) = 72; active. ZKSCAN2 (zinc finger with KRAB and SCAN domains 2), technical replicate 1 gave viability, normalised (%) = 67.8; active. For ZKSCAN2 (zinc finger with KRAB and SCAN domains 2), technical replicate 2 the deposit lists viability, normalised (%) = 79.5; active. ZKSCAN2 (zinc finger with KRAB and SCAN domains 2), technical replicate 3 scored viability, normalised (%) = 58.8; active.

KAT7 (lysine acetyltransferase 7), technical replicate 1 showed viability, normalised (%) = 32.5; active. KAT7 (lysine acetyltransferase 7), technical replicate 2 showed viability, normalised (%) = 36.7; active. KAT7 (lysine acetyltransferase 7), technical replicate 3 showed viability, normalised (%) = 36.7; active. MYPOP (Myb related transcription factor, partner of profilin), technical replicate 1 showed viability, normalised (%) = 31.1; active. MYPOP (Myb related transcription factor, partner of profilin), technical replicate 2 showed viability, normalised (%) = 36.7; active. With MYPOP (Myb related transcription factor, partner of profilin), technical replicate 3 the deposit lists viability, normalised (%) = 32.6; active.

With TRRAP (transformation/transcription domain associated protein), technical replicate 1, the entry reads viability, normalised (%) = 39.7; active. TRRAP (transformation/transcription domain associated protein), technical replicate 1 scored viability, normalised (%) = 49; active. With TRRAP (transformation/transcription domain associated protein), technical replicate 1, the values are viability, normalised (%) = 52.3; active. TRRAP (transformation/transcription domain associated protein), technical replicate 2 showed viability, normalised (%) = 77.4; active. With TRRAP (transformation/transcription domain associated protein), technical replicate 2, the values are viability, normalised (%) = 39.6; active. With TRRAP (transformation/transcription domain associated protein), technical replicate 2 the deposit lists viability, normalised (%) = 31.2; active.

TRRAP (transformation/transcription domain associated protein), technical replicate 3 gave viability, normalised (%) = 49.1; active. TRRAP (transformation/transcription domain associated protein), technical replicate 3 showed viability, normalised (%) = 26.4; active. For TRRAP (transformation/transcription domain associated protein), technical replicate 3, the values are viability, normalised (%) = 66.3; active. With PDE6A (phosphodiesterase 6A), technical replicate 1, the entry reads viability, normalised (%) = 66.2; active. For PDE6A (phosphodiesterase 6A), technical replicate 2 the deposit lists viability, normalised (%) = 59; active. For PDE6A (phosphodiesterase 6A), technical replicate 3 the deposit lists viability, normalised (%) = 42.1; active.

With TMPO (thymopoietin), technical replicate 1 the deposit lists viability, normalised (%) = 69.3; active. For TMPO (thymopoietin), technical replicate 2, the values are viability, normalised (%) = 59.3; active. TMPO (thymopoietin), technical replicate 3 gave viability, normalised (%) = 61.3; active. AGO3 (argonaute RISC catalytic component 3), technical replicate 1 showed viability, normalised (%) = 50.2; active. AGO3 (argonaute RISC catalytic component 3), technical replicate 2 showed viability, normalised (%) = 59.5; active. For AGO3 (argonaute RISC catalytic component 3), technical replicate 3 the deposit lists viability, normalised (%) = 37.8; active.

5 entries from above in another layout:
gene symbol | technical replicate | viability, normalised (%) | call
ZKSCAN2 (zinc finger with KRAB and SCAN domains 2) | 3 | 58.8 | active
KAT7 (lysine acetyltransferase 7) | 1 | 32.5 | active
KAT7 (lysine acetyltransferase 7) | 2 | 36.7 | active
KAT7 (lysine acetyltransferase 7) | 3 | 36.7 | active
MYPOP (Myb related transcription factor, partner of profilin) | 1 | 31.1 | active
